# The other results are listed elsewhere or left out.
# Sequences of proteins named here, by UniProt entry; tags and fusion partners are left off.
# UniProt Q0JBA9, entry or part of it: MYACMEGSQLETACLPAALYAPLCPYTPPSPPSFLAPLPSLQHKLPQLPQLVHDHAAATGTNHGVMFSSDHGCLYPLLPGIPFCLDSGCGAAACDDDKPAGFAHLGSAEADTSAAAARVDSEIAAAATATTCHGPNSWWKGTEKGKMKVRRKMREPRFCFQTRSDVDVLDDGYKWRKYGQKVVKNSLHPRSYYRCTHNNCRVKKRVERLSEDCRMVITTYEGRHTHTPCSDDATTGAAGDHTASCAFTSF
# Biological target: OsWRKY34 (Oryza sativa, UniProt Q0JBA9 1-250)
# Assay: protein-binding microarray (RPBM); PBS, 2% BSA, 51.3 ng/ul salmon testes DNA, 50 uM zinc acetate, 200 nM TF, 25 C, 1 h; high values mean tight binding
# Details: protein: recombinant; tags: N-terminal polyhistidine and DsRed monomer fusion (pET32a); label: CyDye5-dUTP incorporated in the synthesized complementary strand; 3' TTTTT single-stranded linker to array surface; dsDNA, one strand shown
# In short: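 The binding signal is fluorescence intensity per array feature (arbitrary units). Readings came from an Axon 4000B scanner after a washed, 2% BSA-blocked, double-stranded custom Agilent array had been incubated for 1 h at 25 °C with 200 nM protein and 50 µM zinc acetate. The protein was a Ni–NTA-purified transcription factor fused N-terminally to polyhistidine and DsRed, expressed in E. coli BL21-CodonPlus.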
row,Sequence,binding signal
1,TTGGGAGGGGAGGGAGGAGGCACAAGAGTGGTGAGGAGAACGGAGTCACCTAGTGCAG,8700 fluorescence intensity (a.u.)
2,CTTAACCTCTTCACGCCACCGCCGGCCACCACCACCACTCCGGAGTCACCTAGTGCAG,10900 fluorescence intensity (a.u.)
3,TCTCACTCCCATTCTCACTCGCACTCCCATTCACATTCCCCGGAGTCACCTAGTGCAG,11400 fluorescence intensity (a.u.)
4,GGTTATGCTATTACTTTATTATCATGCCGCACATTTCAGACGGAGTCACCTAGTGCAG,8300 fluorescence intensity (a.u.)
5,TCAATTTTCTTGTTGACTCGGTGTTTTTGACTGTGGTCAACGGAGTCACCTAGTGCAG,10900 fluorescence intensity (a.u.)
6,CACTTTGCCTTCGCTTTAGCCTTTGTGCTGTAACTTGCAACGGAGTCACCTAGTGCAG,13900 fluorescence intensity (a.u.)
7,GGAGGTGGTGGTTGGCAAGCTGGATACATGGATGGTTGTGCGGAGTCACCTAGTGCAG,9800 fluorescence intensity (a.u.)
8,TGATAATTTAACGCTTTTTTCATTGTCCAATTACTTTAATCGGAGTCACCTAGTGCAG,9100 fluorescence intensity (a.u.)
9,TGTTTTCTTCTCATTCTTCTTTTTTCCCTTTCTTTTGCTCCGGAGTCACCTAGTGCAG,8390 fluorescence intensity (a.u.)
10,TCTCTCCCTATAGCTTCTTGTTGTTGTTGTTGTTGTTCTCCGGAGTCACCTAGTGCAG,8230 fluorescence intensity (a.u.)
11,ACCATTTGTTCATTTGCCGCATCACATCACATCAACGTATCGGAGTCACCTAGTGCAG,9180 fluorescence intensity (a.u.)
12,TGTGCTTAGGTCAGCTTTGTCGATTTGTAGTCGTCTGTATCGGAGTCACCTAGTGCAG,9010 fluorescence intensity (a.u.)
13,TGAGGGGTTTGGTTACAATTTCTTCTCCCAATTTAAAAACCGGAGTCACCTAGTGCAG,9950 fluorescence intensity (a.u.)
14,TTTGATTTCTTGGAAGAAACCACTTATTGTACCAATGTTCCGGAGTCACCTAGTGCAG,8240 fluorescence intensity (a.u.)
15,CGATCATGACACGACCGTCTTCACCTTGTAGTTCCGCGCGCGGAGTCACCTAGTGCAG,9180 fluorescence intensity (a.u.)
16,ACTGGTTTTACACATTATGTGGGCTAACTTAATACTCCTTCGGAGTCACCTAGTGCAG,8040 fluorescence intensity (a.u.)
17,GAATCGGAGGGCGCGCCCATCCCTTCGCTTTTCCGCAACACGGAGTCACCTAGTGCAG,8190 fluorescence intensity (a.u.)
18,TGAGGTTGATATATACTCTGATTTATTTATTCGTACACATCGGAGTCACCTAGTGCAG,9810 fluorescence intensity (a.u.)
19,TCTCAAACAAACGGTCAGTACCAACATTTGCTATTTATCACGGAGTCACCTAGTGCAG,8050 fluorescence intensity (a.u.)
20,CCAATACGCCCCACACCTCTCCACTCCTGTCCTGTCATCTCGGAGTCACCTAGTGCAG,8240 fluorescence intensity (a.u.)
21,CATATAACAACATACATACGCGCGCACTCTTTTTTCTTAACGGAGTCACCTAGTGCAG,9420 fluorescence intensity (a.u.)

# Quoted at random: two entries already listed.
row,Sequence,binding signal
11,ACCATTTGTTCATTTGCCGCATCACATCACATCAACGTATCGGAGTCACCTAGTGCAG,9180 fluorescence intensity (a.u.)
18,TGAGGTTGATATATACTCTGATTTATTTATTCGTACACATCGGAGTCACCTAGTGCAG,9810 fluorescence intensity (a.u.)

# Further results follow:

row,Sequence,binding signal
1,AATTATTCTATTTGCAGTCAATGGCAAAGTCTTCCTGTTCCGGAGTCACCTAGTGCAG,10800 fluorescence intensity (a.u.)
2,GTGAGAAAAAGTCAACGGCGTCATCTATTAAAAAACGGAGCGGAGTCACCTAGTGCAG,15200 fluorescence intensity (a.u.)
3,TTTGCCATGTCAATCTTCTGTTTTCACATAGCTTCACCGACGGAGTCACCTAGTGCAG,8570 fluorescence intensity (a.u.)
4,ACCCGCACCGCCCTCGACCGCCGCCCGTCGCGTCCCGCCTCGGAGTCACCTAGTGCAG,8920 fluorescence intensity (a.u.)
5,CTTCTGTTGATCAGGGTTGGTAATCTTGTATTGGTTCCATCGGAGTCACCTAGTGCAG,9700 fluorescence intensity (a.u.)
6,TCTCTCTCTCTCTCTGCATCTTCTTCTTCTTCTTCCAGTGCGGAGTCACCTAGTGCAG,8520 fluorescence intensity (a.u.)
7,TCCTTCATTGTACTACTGCTCCTGCTTGCTCTTTCGCTTTCGGAGTCACCTAGTGCAG,8320 fluorescence intensity (a.u.)
8,GTACTTACCATGAAACTCTTATATATTTACATTGTAATTTCGGAGTCACCTAGTGCAG,8070 fluorescence intensity (a.u.)
9,CTCCAGCCGCCGCCTGGGCTGAACCCTAACTGCGCCATCACGGAGTCACCTAGTGCAG,8750 fluorescence intensity (a.u.)
10,GCCCTATTTCATATAAATTTTCTTCAGTAGTCTTGCTCTACGGAGTCACCTAGTGCAG,9310 fluorescence intensity (a.u.)
11,GATCTTTACCTTTTGCCTCGCTTCTTTCCCGCACGCGCGGCGGAGTCACCTAGTGCAG,10500 fluorescence intensity (a.u.)
12,AAGTGCAACCATAGATATCCGTGTCCAGCGTTTTGACTGTCGGAGTCACCTAGTGCAG,9180 fluorescence intensity (a.u.)
13,ACGTGGTGGAGAGTTGAGCGGCCGGCAGTTGAATGTTTGACGGAGTCACCTAGTGCAG,8340 fluorescence intensity (a.u.)
14,CGACGGCGCGCACCCAACACAACACAATACGTCCGCGCCGCGGAGTCACCTAGTGCAG,8650 fluorescence intensity (a.u.)
15,TCTCTTTTGGCTGCCTGTCACGTGGGCCCCACCGTCACCGCGGAGTCACCTAGTGCAG,8810 fluorescence intensity (a.u.)
16,GTCCATTCCCTTATTCAGGTGTGCATGCTCTGCATCAATGCGGAGTCACCTAGTGCAG,10900 fluorescence intensity (a.u.)
17,GTCCAAGAAGGCTACACGCTGCCACTGCCAATCTGCCATGCGGAGTCACCTAGTGCAG,8120 fluorescence intensity (a.u.)
18,GAATTCATACTTTTTCCTATATTTATCTTTGGCCTTAATCCGGAGTCACCTAGTGCAG,8560 fluorescence intensity (a.u.)
19,ACCATGTCTGTTTCGGCGGTGGCATTAACCAGTCAAGATCCGGAGTCACCTAGTGCAG,8040 fluorescence intensity (a.u.)
20,GCAACCTCATTTCCTTGTTGTTTTGTGCTTAACACCATATCGGAGTCACCTAGTGCAG,8450 fluorescence intensity (a.u.)
21,TAGTCACCAGCCATTTTAGTCCCATTTTAATTAGTCTCTTCGGAGTCACCTAGTGCAG,8080 fluorescence intensity (a.u.)

# Reference: PMC7819943, “Rice protein-binding microarrays: a tool to detect cis-acting elements near promoter regions in rice”
